Reference: the supplement of paper PMC5949888
Most values lie at the floor of the assay. Slopes are relative: functional sequences can read slightly below zero.

test system: Saccharomyces cerevisiae PS128 hsf1 delta, HSF1(1-493) fusion; experiment: growth estimate (transactivation domain function in HSF1 fusion, heat-shock survival) (a.u. (slope of normalised read count over time)); higher = stronger growth at 37°C, i.e. more transactivation activity; details: library: random library

Row | Substance | growth estimate
1 | QITGLHTEGTAWRLEVEFGR | < -0.25
2 | QITKPTCQYNSSAHGWSAT | < -0.25
3 | QITVWTIGQGEVPVYPRFDH | < -0.25
4 | QIVLSGVNVPSVPNPGRTPN | < -0.25
5 | QIVSANVADTNALTR | < -0.25
6 | QKALIRLAVP | < -0.25
7 | QKCVVCVRLGDRNESDHSDA | < -0.25
8 | QKFGTRRILCRRYRSAWNSQ | < -0.25
9 | QKGARMIWRAVVGRPYKFDC | < -0.25
10 | QKGGMRMIDGRRYHAKSAQG | < -0.25
11 | QKGSLSWFSI | < -0.25
12 | QKGSTHGSLLRMWRANEQYG | < -0.25
13 | QKHRRAHLLQPVGALFFGKR | < -0.25
14 | QKIGEPGFLSLGNYQKRC | < -0.25
15 | QKSDGFGNYRSTSIWRIK | < -0.25
16 | QKSLS | < -0.25
17 | QKSQSELMECIRSLFQWCWI | < -0.25
18 | QKTVRSCGSTQNGDTLQPNT | < -0.25
19 | QKWIVRCERTKGKKGLHGVA | < -0.25
20 | QLAPPITVPCCGLPCCVFFD | < -0.25
21 | QLCEIKGIIPNI | < -0.25
22 | QLCSFQVPV | < -0.25
23 | QLD | < -0.25
24 | QLDE | < -0.25
25 | QLEGEGCGCLTAVMAWPQ | < -0.25

Row | Substance | growth estimate
26 | QLFEVCVGLHFTFLPKVSGD | < -0.25
27 | QLFLQALCSMVGGGDR | < -0.25
28 | QLGIIPQGGP | < -0.25
29 | QLGLVFNSKLRSSVAVPCVC | < -0.25
30 | QLGPFPVTVIVLLAALQEGL | < -0.25
31 | QLHGGIDWLCRR | < -0.25
32 | QLLINGCR | < -0.25
33 | QLLPGPNCC | < -0.25
34 | QLNRVDPIIVRLSAPN | < -0.25
35 | QLNSLSSECHYIELAGPSMQ | < -0.25
36 | QLPYSRIY | < -0.25
37 | QLRAGIRCVV | < -0.25
38 | QLRERLHIRSRI | < -0.25
39 | QLRFEHAPRPTSSRSGHLS | < -0.25
40 | QLRMEQRARMVCWVN | < -0.25
41 | QLSA | < -0.25
42 | QLSCCCRTKLLSFWSWLLSC | -0.205
43 | QLSLRAGFTKVINPQLRKVL | -0.245
44 | QLT | < -0.25
45 | QLTIRSLHAQPIRCCKLEKE | < -0.25
46 | QLYRKS | < -0.25
47 | QMDHV | < -0.25
48 | QMDPVR | < -0.25
49 | QMLVEMRRYREQSRGEVTQT | < -0.25
50 | QMPQFPGRHHTSGHVPITPL | < -0.25

Row | Substance | growth estimate
51 | QMYADTE | < -0.253
52 | QMYRQSPAFAAKSDSIG | < -0.25
53 | QNGTHE | < -0.25
54 | QNIYRHFQVTRRLQAA | < -0.25
55 | QNP | < -0.25
56 | QNRILDEKHKLPYANPNIVL | < -0.25
57 | QNRRLKRSGGGRSG | < -0.25
58 | QNSHQLGSYWEGAINWNM | -0.193
59 | QNSTSSYSTGRPHDLAAEIV | < -0.25
60 | QNVGG | < -0.25
61 | QNVRGLLDRRLLEVRFGYCL | 0.356
62 | QNVWSRAREAGRRRPRRCAH | < -0.25
63 | QPALPVKSLLISHGPC | < -0.25
64 | QPAQKHNREGATLDGDEQHL | < -0.25
65 | QPCSHLP | < -0.25
66 | QPERSKYWRD | < -0.25
67 | QPGERRGGINSVGERTSSTL | < -0.25
68 | QPGGQSGRFGLAVSQ | < -0.25
69 | QPGQLGRGILRVGC | < -0.25
70 | QPISRDMVALT | < -0.25
71 | QPK | < -0.25
72 | QPKGGR | < -0.25
73 | QPLGGIDCPERR | < -0.25
74 | QPQNVSGSIEPRSTGLSIFH | < -0.25
75 | QPRGLCCGVNFLRFLA | < -0.25

Rewritten in CSV form: part of the list above
Row,Substance,growth estimate
62,QNVWSRAREAGRRRPRRCAH,< -0.25
63,QPALPVKSLLISHGPC,< -0.25
64,QPAQKHNREGATLDGDEQHL,< -0.25
65,QPCSHLP,< -0.25
66,QPERSKYWRD,< -0.25

(continued)

Row | Substance | growth estimate
76 | QPRGR | < -0.25
77 | QPRLLHT | < -0.25
78 | QPRRILGPCFRRWRPALQHE | < -0.25
79 | QPSLSQKCS | < -0.25
80 | QPTGITAQSLTRSVVISACT | < -0.25
81 | QPTGPYLLRRGAW | < -0.25
82 | QPVQSLGPLVQSCLQMELRM | < -0.25
83 | QPWMGLLAADFSAAFLRQLL | < -0.25
84 | QPWVNISWQCMINIVGGALL | < -0.25
85 | QQALPSLRKQALRLSGPQTF | < -0.25
86 | QQENEGRHSEFIYIFAPMKF | < -0.25
87 | QQFPTGGDTRLCLSGYRNTV | < -0.25
88 | QQM | < -0.25
89 | QQQRLRYIIAVLPHWRRCTY | < -0.25
90 | QQRLIRRVLRRLTSNLGLRM | < -0.25
91 | QQYQPVLIRC | < -0.25
92 | QRAACPSIETFRAEPGTPRS | < -0.25
93 | QRELVTAPIKECAKALTACP | < -0.25
94 | QREP | < -0.25
95 | QRERPSVDRGRT | < -0.25
96 | QRFAASAGDF | < -0.25
97 | QRFRFCTGLHCG | < -0.25
98 | QRGQLTATKEGNRVQPSGGL | < -0.25
99 | QRGREGQGSLFEQDSLY | < -0.25
100 | QRHPGCHVIQPALVASI | < -0.25

Individual results from the results shown.
QQALPSLRKQALRLSGPQTF – growth estimate: < -0.25
QRGREGQGSLFEQDSLY – growth estimate: < -0.25
QPRGR – growth estimate: < -0.25

More records follow.

Row | Substance | growth estimate
101 | QRKGTPVGPFRGNQPVVAPA | < -0.25
102 | QRKWEGEYSAAHAEES | < -0.25
103 | QRLLRDISQRRRMDYW | < -0.25
104 | QRQWYARRC | < -0.25
105 | QRSIVG | < -0.25
106 | QRSPSTSKAKPGKGEGSVDS | -0.246
107 | QRSRWCCYFARVSRGLGPSR | < -0.25
108 | QRVGHTKFWPKFS | < -0.25
109 | QRVLR | < -0.25
110 | QRVLRGAIHYSMQSPL | < -0.25
111 | QRVRAT | < -0.25
112 | QRVT | < -0.25
113 | QRVTKMGSDDVYSHLVHNTF | -0.246
114 | QRVVVRTRIAVQAARLTRNS | < -0.25
115 | QRWITGSFLSSAYENVCGYE | < -0.25
116 | QRYLAGGRDVPFPPSVKRPA | < -0.25
117 | QSACLVVIDGLACELSPPSR | < -0.25
118 | QSAGST | < -0.25
119 | QSAKDSKAQRWPTPR | < -0.25
120 | QSDRNHAASVRRDGPEVTDS | < -0.25
121 | QSDWLHVDMFRHAVLPQ | < -0.25
122 | QSEQTNRAGPDRRGEVWLNA | < -0.25
123 | QSEVRLS | < -0.25
124 | QSGSHSSPYEYLGGDVTFSG | -0.109
125 | QSIVAIRESILRGGGSL | < -0.25

Laid out differently: results already given.
Row	Substance	growth estimate
105	QRSIVG	< -0.25
106	QRSPSTSKAKPGKGEGSVDS	-0.246
107	QRSRWCCYFARVSRGLGPSR	< -0.25
108	QRVGHTKFWPKFS	< -0.25
116	QRYLAGGRDVPFPPSVKRPA	< -0.25
121	QSDWLHVDMFRHAVLPQ	< -0.25
124	QSGSHSSPYEYLGGDVTFSG	-0.109

(next part)

Row | Substance | growth estimate
126 | QSLELH | < -0.25
127 | QSNDIVVLYGNHTSHQGHQW | < -0.25
128 | QSQSNAWCPLTVQKEKGDS | < -0.25
129 | QSRAALARHLSGPASSSTLL | < -0.25
130 | QSRDLG | < -0.25
131 | QSRHSAWVSRTPSNGKWLRG | -0.245
132 | QSRLRVTTQEFCSQLRTGPD | < -0.25
133 | QSSSIAHPID | < -0.25
134 | QSTGRKVMWADVGSY | < -0.25
135 | QSTGTAIQL | < -0.25
136 | QSTKL | < -0.25
137 | QSVEST | < -0.25
138 | QSVLGAIETSDDGDSVAREA | < -0.25
139 | QSVRE | < -0.25
140 | QSVVCARVGPYATLHQCALL | < -0.25
141 | QSVWIAR | < -0.25
142 | QSYVICYLVVTTRCASSLCV | < -0.25
143 | QTAED | < -0.25
144 | QTFLNGYDRYTYSRGRILPV | < -0.25
145 | QTGDLIRDFPLRNHSSTREA | < -0.25
146 | QTHNEG | < -0.25
147 | QTKPLGSYGL | < -0.25
148 | QTPSKIDRSYEGVIYIASFP | < -0.25
149 | QTRPSATRLITFYLITSVGS | < -0.25
150 | QTRR | < -0.25

Row | Substance | growth estimate
151 | QTSAWFTGLEGQEHEMEGFA | 0.461
152 | QTSDW | < -0.25
153 | QTSLVGLIPRLLFRPISAMT | < -0.25
154 | QTVI | < -0.25
155 | QTVSQVRDQNPQHTWVVVSD | < -0.25
156 | QVASQDQ | < -0.25
157 | QVCIGFNHGLYQRCIMLEDL | < -0.25
158 | QVCSFPAYDKQLDEPSRRLR | < -0.25
159 | QVDIRVIRLDHTQGIIR | < -0.25
160 | QVDRAVLGRGIFYSPALTIS | < -0.25
161 | QVGRTAAEAKYRRQSKLTER | < -0.25
162 | QVHDPLDAT | < -0.25
163 | QVILQGTRDTTVG | < -0.25
164 | QVIYVVTSFALSRIAACYLP | < -0.25
165 | QVKKCRKHRG | < -0.25
166 | QVL | < -0.25
167 | QVLASVSTGALQQPLCLCVG | < -0.25
168 | QVLGVGRDYRNHRYTGVKNP | < -0.25
169 | QVLLST | < -0.25
170 | QVLWSADGSAVFMIYVSRLI | < -0.25
171 | QVMPKRFRGNSRLTLVVDTI | < -0.25
172 | QVNRWPDDPARASQMGPLVG | < -0.25
173 | QVNSVQ | < -0.25
174 | QVTRTTQH | -0.246
175 | QVTTCTQAYRRC | < -0.25

Row | Substance | growth estimate
176 | QVVGDGRGSAVIGVRGGASV | < -0.25
177 | QVVTSTMGPVGRGAHRANRG | < -0.25
178 | QVYNSARLVGH | < -0.25
179 | QWDRLSLSVSVGSGRSSCIH | < -0.25
180 | QWNDSGERVRPAGR | < -0.25
181 | QWSVLEAG | < -0.25
182 | QWTLGDARY | < -0.25
183 | QWTSSCRIHSG | < -0.25
184 | QWVANGHLLVPDYKYRGRSR | < -0.25
185 | QWVRVGRRTQAVLNAPRCRL | < -0.25
186 | QWYGNLRARHFRDR | < -0.25
187 | QYCQWA | < -0.25
188 | QYEERCRKSPSTRDEFHGSH | < -0.25
189 | QYGRSALLPNGCRVLL | < -0.25
190 | QYLGSNIFFEFQYGWELVSN | < -0.25
191 | QYPDDRNGVM | < -0.25
192 | QYRTSGDL | < -0.25
193 | QYRVSTGTQQLSAF | < -0.25
194 | QYSCVHRLDTPLKEILSR | < -0.25
195 | QYSPNP | < -0.25
196 | RAAALANSGALPIFRTTVSR | < -0.25
197 | RAACLQPHISMSGISQYQRS | < -0.25
198 | RAADDESQTYSFMSAVCSGA | < -0.25
199 | RAALVYRKD | < -0.25
200 | RAASRLR | < -0.25
